For test [1], the target named is Cyclin D1 (CCND1) (human (endogenous in IMR90)) (UniProt P24385). Put plainly: affinity purification with mass spectrometry; CCND1 IP from senescent IMR90 lysate (EBC100) with two antibodies (rabbit and mouse) on Dynabeads Protein G against IgG control IPs; three washes NETN, two washes TBS; on-bead trypsin/Lys-C digest, LC-MS/MS.
Test [2] has the same target. The description is as above. The source holds these as a separate data set.

Chains of the proteins cited; added tags and fusions are not shown.
UniProt P24385: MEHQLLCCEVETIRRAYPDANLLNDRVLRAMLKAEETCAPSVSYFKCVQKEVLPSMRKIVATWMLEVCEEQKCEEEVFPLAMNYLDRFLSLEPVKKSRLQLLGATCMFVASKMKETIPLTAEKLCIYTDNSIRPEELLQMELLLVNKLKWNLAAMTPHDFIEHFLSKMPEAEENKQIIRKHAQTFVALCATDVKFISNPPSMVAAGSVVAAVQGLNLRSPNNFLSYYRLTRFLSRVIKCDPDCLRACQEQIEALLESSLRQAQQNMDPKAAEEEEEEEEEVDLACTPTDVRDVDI
UniProt P38936: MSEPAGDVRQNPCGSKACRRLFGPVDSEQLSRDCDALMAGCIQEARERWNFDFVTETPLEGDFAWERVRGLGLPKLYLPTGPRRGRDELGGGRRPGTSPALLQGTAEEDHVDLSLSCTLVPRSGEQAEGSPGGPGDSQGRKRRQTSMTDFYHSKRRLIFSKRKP
UniProt P33176: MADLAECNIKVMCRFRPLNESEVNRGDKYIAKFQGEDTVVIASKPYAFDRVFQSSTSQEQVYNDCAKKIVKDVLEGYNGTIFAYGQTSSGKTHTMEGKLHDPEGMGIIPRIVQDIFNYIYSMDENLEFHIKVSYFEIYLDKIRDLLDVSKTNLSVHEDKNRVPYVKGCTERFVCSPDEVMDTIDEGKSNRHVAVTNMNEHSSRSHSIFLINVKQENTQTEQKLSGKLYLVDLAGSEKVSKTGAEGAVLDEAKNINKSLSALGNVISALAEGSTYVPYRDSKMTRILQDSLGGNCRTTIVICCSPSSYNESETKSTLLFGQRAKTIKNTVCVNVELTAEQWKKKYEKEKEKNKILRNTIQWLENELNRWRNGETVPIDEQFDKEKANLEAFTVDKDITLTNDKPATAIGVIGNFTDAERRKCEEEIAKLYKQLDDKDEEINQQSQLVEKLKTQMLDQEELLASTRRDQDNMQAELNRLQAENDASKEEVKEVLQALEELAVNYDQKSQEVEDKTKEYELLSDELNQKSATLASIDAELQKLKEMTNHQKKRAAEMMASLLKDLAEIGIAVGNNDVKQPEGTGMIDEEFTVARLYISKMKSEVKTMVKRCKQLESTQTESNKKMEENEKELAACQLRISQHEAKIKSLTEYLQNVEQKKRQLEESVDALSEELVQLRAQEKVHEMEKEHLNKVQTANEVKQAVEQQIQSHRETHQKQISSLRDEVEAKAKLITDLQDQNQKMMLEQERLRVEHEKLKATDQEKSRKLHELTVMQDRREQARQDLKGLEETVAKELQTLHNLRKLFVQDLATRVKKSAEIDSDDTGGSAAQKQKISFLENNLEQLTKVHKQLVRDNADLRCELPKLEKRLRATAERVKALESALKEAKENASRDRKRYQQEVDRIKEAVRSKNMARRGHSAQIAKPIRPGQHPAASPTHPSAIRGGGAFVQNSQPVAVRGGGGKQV
UniProt P12004: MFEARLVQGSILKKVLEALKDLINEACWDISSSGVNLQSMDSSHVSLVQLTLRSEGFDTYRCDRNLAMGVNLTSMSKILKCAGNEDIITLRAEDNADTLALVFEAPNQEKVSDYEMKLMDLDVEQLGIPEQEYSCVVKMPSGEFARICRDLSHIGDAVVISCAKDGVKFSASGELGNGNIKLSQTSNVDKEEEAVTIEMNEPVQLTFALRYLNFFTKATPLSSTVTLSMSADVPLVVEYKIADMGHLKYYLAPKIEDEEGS

These results are taken from publication doi:10.1101/2025.08.01.668243.

Read-outs that look alike come from different tables or passages of the source. No constants are given. Whether binding was seen depends on the method and setting. In cells and extracts the contact can be indirect. Here binding means that the protein was enriched with, or labelled near, the bait; the list need not be complete.

As to CDKN1A (from UniProt P38936 1-164), the binding entry in test [1] is “binds”.
Same read-out and setting: the same measure for KIF5B (from UniProt P33176 1-963): “binds”.
For the molecule PCNA (from UniProt P12004 1-261), the binding result in test [1] is on record as “binds”.

B1: KIF4A (protein, UniProt O95239 1-1232)
chain: MKEEVKGIPVRVALRCRPLVPKEISEGCQMCLSFVPGEPQVVVGTDKSFTYDFVFDPSTEQEEVFNTAVAPLIKGVFKGYNATVLAYGQTGSGKTYSMGGAYTAEQENEPTVGVIPRVIQLLFKEIDKKSDFEFTLKVSYLEIYNEEILDLLCPSREKAQINIREDPKEGIKIVGLTEKTVLVALDTVSCLEQGNNSRTVASTAMNSQSSRSHAIFTISLEQRKKSDKNSSFRSKLHLVDLAGSERQKKTKAEGDRLKEGININRGLLCLGNVISALGDDKKGGFVPYRDSKLTRLLQDSLGGNSHTLMIACVSPADSNLEETLNTLRYADRARKIKNKPIVNIDPQTAELNHLKQQVQQLQVLLLQAHGGTLPGSITVEPSENLQSLMEKNQSLVEENEKLSRGLSEAAGQTAQMLERIILTEQANEKMNAKLEELRQHAACKLDLQKLVETLEDQELKENVEIICNLQQLITQLSDETVACMAAAIDTAVEQEAQVETSPETSRSSDAFTTQHALRQAQMSKELVELNKALALKEALARKMTQNDSQLQPIQYQYQDNIKELELEVINLQKEKEELVLELQTAKKDANQAKLSERRRKRLQELEGQIADLKKKLNEQSKLLKLKESTERTVSKLNQEIRMMKNQRVQLMRQMKEDAEKFRQWKQKKDKEVIQLKERDRKRQYELLKLERNFQKQSNVLRRKTEEAAAANKRLKDALQKQREVADKRKETQSRGMEGTAARVKNWLGNEIEVMVSTEEAKRHLNDLLEDRKILAQDVAQLKEKKESGENPPPKLRRRTFSLTEVRGQVSESEDSITKQIESLETEMEFRSAQIADLQQKLLDAESEDRPKQRWENIATILEAKCALKYLIGELVSSKIQVSKLESSLKQSKTSCADMQKMLFEERNHFAEIETELQAELVRMEQQHQEKVLYLLSQLQQSQMAEKQLEESVSEKEQQLLSTLKCQDEELEKMREVCEQNQQLLRENEIIKQKLTLLQVASRQKHLPKDTLLSPDSSFEYVPPKPKPSRVKEKFLEQSMDIEDLKYCSEHSVNEHEDGDGDDDEGDDEEWKPTKLVKVSRKNIQGCSCKGWCGNKQCGCRKQKSDCGVDCCCDPTKCRNRQQGKDSLGTVERTQDSEGSFKLEDPTEVTPGLSFFNPVCATPNSKILKEMCDVEQVLSKKTPPAPSPFDLPELKHVATEYQENKAPGKKKKRALASNTSFFSGCSPIEEEAH
As to B1, the binding entry in test [2] is on record as “binds”.
